Measurements taken from patent US11739161B2, “Methods for treating and diagnosing prostate cancer” (Tufts Medical Center, Inc., priority 2017, dated 2023).
At least one compound was matched to its structure with a doubt left.

Key:
Type in all cases: cell-based, human
[1] = test system: AKT and S6 phosphorylation in DU145 cells; experiment: RNASE4-induced phosphorylation of AKT and S6 (immunoblot); settings: DU145, inhibitor 1 hour, then 1 μg/ml RNASE4 5 minutes
Method: (§1) FIGS. 10A-E. RNASE4 induces prostate cancer cell proliferation and phosphorylation of AKT and S6. (A and B) Exogenous RNASE4 (1 μg/ml) stimulates cell proliferation (A) and cell cycle progression (B) of DU145 cells cultured in the presence of 2% FBS. Cell numbers were determined by MTT assay. Cell cycle status was determined by flow cytometry after 24 hour incubation with RNASE4. (C) Time course of AKT and S6 phosphorylation of serum-starved DU145 cells by RNASE4 (1 μg/ml). Left panels, immunoblots; right panels, quantification of p-AKT and p-S6 normalized to total AKT and S6 by Image J analysis. […] Cells were pre-incubated with the inhibitors at the indicated concentrations for 1 hour prior to be stimulated by 1 μg/ml of RNASE4 for 5 minutes. Top panels, immunoblots; bottom panels, Image J quantification of p-AKT and p-S6 normalized to total AKT and S6. (E) Effect of AKT inhibitor MK-2206, PI3K inhibitors Wortmannin and LY294002, and mTOR inhibitor Rapamycin on RNASE4-induced cell proliferation. DU145 cells were serum-starved overnight, incubated with the inhibitors for 1 hour, and then treated with RNASE4 (1 μg/ml) for three days. Cell numbers were determined by MTT assay. Data shown are from a representative experiments in triplicates of 3 independent repeats. Error bars indicate SEM. **P≤0.01, by unpaired two-tailed Student's t test.
FIGS. 12A-F. RNASE4 induces AXL phosphorylation. (A) Human phospho-receptor tyrosine kinase (RTK) antibody array analysis. Serum-starved DU145 cells were treated with or without 1 μg/ml of RNASE4 for 5 minutes. A total of 1.5 mg cell lysate protein was blotted on each array membrane. […] (B) Immunoblot analysis of RNASE4-stimulated AXL phosphorylation. DU145 cells were serum-starved overnight and treated with 1 μg/ml of RNASE4 for the indicated time. Cell lysates were analyzed by antibodies against total AXL and phospho-AXL, with β-actin as the loading control. Left panels, immunoblots; right panel, Image J quantification of p-AXL normalized to total AXL. (C) Immunoblot analysis of phospho-AXL in response to stimulation by ANG, RNase A, and RNASE4. DU145 cells were serum-starved overnight and treated with 1 μg/ml of ANG, RNase A, or RNASE4 for 15 minutes. Left panels, immunoblots; right panel, quantification. (D) Effect of AXL inhibitor R428 on RNASE4-induced cell proliferation. Serum-starved DU145 cells were incubated with 1 or 3 μM R428 for 3 hours and then stimulated by 1 μg/ml of RNASE4 for 3 days. Cell numbers were determined by MTT assay. Data shown are means±SEM of a representative experiment (in triplicates) of 3 independent repeats. **P≤0.01 and ***P≤0.001, by unpaired two-tailed Student's t test. (E) Effect of AXL inhibitor R428 on RNASE4-induced AKT and P6 phosphorylation. Serum-starved DU145 cells were incubated with 1 or 3 μM R428 for 3 hours and then stimulated by 1 μg/ml of RNASE4 for 5 minutes. Cell lysates were analyzed for AKT and P6 phosphorylation by immunoblotting. Top panels, immunoblots; bottom panels, quantification of phospho-AKT and phospho-S6 by Image J analyses normalized to total AKT and P6, respectively. (F) Schematic presentation of proposed involvement of AXL in RNASE4-stimulated cellular events.

PC-3 cells = experiment: RNASE4-induced cell proliferation (MTT assay); settings: PC-3, inhibitor 1 hour, then RNASE4 1 μg/ml 3 days
Method: FIGS. 11A-F. RNASE4 induces PC-3 cell proliferation and phosphorylation of AKT and S6. (A) Exogenous RNASE4 (1 μg/ml) stimulates PC-3 cells proliferation in the presence of 2% FBS. Cell numbers were determined by MTT assay. (B) Time course of AKT and S6 phosphorylation of serum-starved PC-3 cells by RNASE4 (1 μg/ml). Left panels, immunoblots; right panels, quantification of p-AKT and p-S6 normalized to total AKT and S6 by Image J. (C) Effect of AKT inhibitor MK-2206, PI3K inhibitors LY294002 and Wortmannin, and mTOR inhibitor Rapamycin on RNASE4-induced PC-3 cell proliferation. Cells were pre-incubated with the inhibitors at the indicated concentrations for 1 hour prior to be stimulated by RNASE4 (1 μg/ml) for 3 days. Cell numbers were determined by MTT assay. (D) Human phospho-RTK antibody array analysis of starved PC-3 cells treated with or without 1 μg/ml RNASE4 for 5 minutes. (E) Time course of AXL phosphorylation stimulated by RNASE4 in PC-3 cells. Serum-starved PC-3 cells were treated with 1 μg/ml RNASE4 for different time. Cell lysates were analyzed for total AXL and phopho-AXL by immunoblotting. Left panels, immunoblots; right panel, quantification phospho-AXL normalized to total AXL by Image J analysis. (F) Effect of AXL inhibitor R428 on RNASE4-induced PC-3 cell proliferation. Serum-starved PC-3 cells were incubated with 1 or 3 μM R428 for 3 hours and then stimulated by 1 μg/ml of RNASE4 for 3 days. Cell numbers were determined by MTT assay. Data shown are means±SEM of a representative experiments in triplicates of 3 independent repeats. **P≤0.01 and ***P≤0.001, by unpaired two-tailed Student's t test.

DU145 cells = experiment: RNASE4-induced cell proliferation (MTT assay); settings: serum-starved DU145, inhibitor 1 hour, then RNASE4 1 μg/ml three days
Method: as §1
FIGS. 12A-F. RNASE4 induces AXL phosphorylation. (A) Human phospho-receptor tyrosine kinase (RTK) antibody array analysis. Serum-starved DU145 cells were treated with or without 1 μg/ml of RNASE4 for 5 minutes. […] Cell lysates were analyzed by antibodies against total AXL and phospho-AXL, with β-actin as the loading control. Left panels, immunoblots; right panel, Image J quantification of p-AXL normalized to total AXL. […] Left panels, immunoblots; right panel, quantification. […] Cell numbers were determined by MTT assay. […] Cell lysates were analyzed for AKT and P6 phosphorylation by immunoblotting. Top panels, immunoblots; bottom panels, quantification of phospho-AKT and phospho-S6 by Image J analyses normalized to total AKT and P6, respectively. […]

Row | Compound | RNASE4-induced AKT phosphorylation [1] | RNASE4-induced S6 phosphorylation [1] | RNASE4-induced cell proliferation (PC-3 cells) | RNASE4-induced cell proliferation (DU145 cells)
1 | O=c1cc(N2CCOCC2)oc2c(-c3ccccc3)cccc12 [LY294002] | inhibited | inhibited | abolished | abolished
2 | CO[C@H]1C[C@@H]2CC[C@@H](C)[C@@](O)(O2)C(=O)C(=O)N2CCCC[C@H]2C(=O)O[C@H]([C@H](C)C[C@@H]2CC[C@@H](O)[C@H](OC)C2)CC(=O)[C@H](C)/C=C(\C)[C@@H](O)[C@@H](OC)C(=O)[C@H](C)C[C@H](C)/C=C/C=C/C=C/1C [Rapamycin] | not | inhibited | abolished | abolished
3 | COC[C@H]1OC(=O)c2coc3c2[C@@]1(C)C1=C(C3=O)[C@@H]2CCC(=O)[C@@]2(C)C[C@H]1OC(C)=O [Wortmannin] | inhibited | inhibited | abolished | abolished
